Earlier results, collected in US20070015739A1, “Use of non-antibacterial tetracycline formulations for inhibiting bacterial spores” (priority 2005, published 2007).
For at least one compound, name, drawing or mass did not settle the structure.

System: B. subtilis spores
Conditions: in vitro; cited from earlier work

SMILES: CN(C)[C@@H]1C(O)=C(C(N)=O)C(=O)[C@@]2(O)C(O)=C3C(=O)c4c(O)cccc4[C@@](C)(O)[C@H]3[C@H](O)[C@@H]12 [oxytetracycline]
- effect on the initiation stage (e.g., germination) of the spores: no effect
